Experimental data: PubChem BioAssay AID2685 (National Center for Advancing Translational Sciences (NCATS), 2010)
This is one part of the list. These are further read-outs of the screen, such as a control signal, another cell line or another target. No call is given for them. Most of these compounds were active or inconclusive in the main read-out, so they are no random draw. The note in brackets gives the kind of curve behind each potency; many fits are weak.

Assay: qHTS Assay for Lipid Storage Modulators in Drosophila S3 Cells;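 for cell number change: cells counted by Cell Tracker Red CMTPX staining in the red channel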
Settings: BODIPY lipid droplet fluorescence, 18-24 h; for cell number change: measured here: cell count max response, cells fed with added oleic acid
In short: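 Drosophila S3 cells got compounds at several concentrations plus oleic acid (400 uM solution). Laser-scanning cytometry with 488 nm excitation read lipid droplets at 500-530 nm and cells at 575-640 nm. Percent activity was relative to 20 uM Triacsin C.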

[1] = measured here: cell number channel AC50, cells fed with added oleic acid
[2] = measured here: lipid fluorescence (Fed channel) AC50, cells fed with added oleic acid

With COc1ccc(NC(=O)NCCCCc2ccccc2)c(OC)c1 the cell number change was -52.5%, the AC50 [1] was 14.1 µM [falling, single point] and the AC50 [2] was 17.8 µM [falling, single point].
With CCn1nc(NC(=O)Cc2ccc(OC)cc2)c2cc3cccc(C)c3nc21 the cell number change was -43%, the AC50 [1] was 25.9 µM [falling, single point] and the AC50 [2] was 29.1 µM [falling, single point].
With O=C(CCNS(=O)(=O)c1cccc2nsnc12)NCc1cccs1 the cell number change was 46% and the AC50 [1] was 10.3 µM [rising, partial curve].
Molecule CC(=O)c1ccc(N=Nc2ccc(N(C)C)cc2)cc1 has a cell number change of 11.1%.
In the case of Cc1c(C(=O)NCCc2ccc3c(c2)OCCO3)oc2ccccc12, the AC50 [1] is reported as 4.11 µM [rising, single point] and the AC50 [2] is reported as 4.61 µM [rising, single point].
For CN(Cc1cccs1)C(=O)CCCc1c[nH]c2ccccc12, the cell number change was 105% and the AC50 [1] was 20.6 µM [rising, single point].
In the case of CC(=O)Nc1cccc(NC(=O)c2ccc([N+](=O)[O-])cc2Cl)c1, the cell number change is reported as 40.2%, the AC50 [1] is reported as 29.1 µM [rising, single point] and the AC50 [2] is reported as 29.1 µM [rising, single point].
With COCCN(CCOC)S(=O)(=O)c1ccc(C(=O)Nc2nnc(C)o2)cc1 the cell number change was -48.3%, the AC50 [1] was 20.6 µM [falling, single point] and the AC50 [2] was 3.66 µM [rising, full curve].
Molecule CC(C)CCNC(=O)NC(=O)COc1c(F)c(F)cc(F)c1F has a cell number change of 0.58%.
For Fc1ccc(NC(=S)NCc2cccs2)cc1, the cell number change was -33.3%, the AC50 [1] was 4.61 µM [falling, single point] and the AC50 [2] was 16.4 µM [rising, partial curve, poor fit].
With O=C(CN1C(=O)S/C(=C\c2cccc(Cl)c2)C1=O)NCCCn1ccnc1 the cell number change was -119%, the AC50 [1] was 29.1 µM [falling, single point] and the AC50 [2] was 0.116 µM [falling, full curve, poor fit].
In the case of COc1ccc(OCCSc2ccc(S(=O)(=O)N3CCCC3)cn2)cc1, the cell number change is reported as -6.69%.
COc1ccccc1OC(C)C(=O)Nc1ccccc1C(=O)NCc1cccnc1 (centres undefined) gave a cell number change of 2.63%.
With O=C(NCc1ccc(F)cc1)C(=O)NCC1OCCN1C(=O)c1ccc(Cl)cc1 (centres undefined) the cell number change was 8.76% and the AC50 [2] was 0.0651 µM [rising, full curve, poor fit].
With C=CCn1c(O)c(N=NC(=O)CNC(=O)/C=C/c2ccco2)c2ccccc21 the cell number change was 79.6%, the AC50 [1] was 25.9 µM [rising, single point] and the AC50 [2] was 29.1 µM [rising, single point].
In the case of COc1cccc(C(=O)NCCS(=O)(=O)NCc2cccnc2)c1, the AC50 [2] is reported as 0.146 µM [falling, full curve, poor fit].
